Laboratory results: patent US20220331500A1, “DIALYZER” (SCHOOL JURIDICAL PERSON THE KITASATO INSTITUTE, priority 2019, published 2022)

Tested on: Sprague Dawley rats
Assay: Measurement of NO concentration in blood and dialysate during rat blood dialysis (OxiSelect Nitrite/Nitrate kit)
Type: in vivo
Details: for NO concentration in the dialysate: calculated from the 800 ppm result
Method: NO gas of which the concentration was adjusted to 200 ppm, 400 ppm, and 800 ppm was added to the dialysate via a gas exchanger. As a control group, nitrogen gas (N2) was added to the dialysate instead of NO gas.
For a group in which 800 ppm of NO gas was supplied to the dialysate, the dialysate was supplied to the blood (in) on an arterial side of the dialysis unit, the blood (out) on a venous side of the dialysis unit, the dialysate (in) in the dialysate supply channel for supplying the dialysate to the dialysis unit, and the dialysate (out) in the dialysate discharge channel for discharging the dialysate from the dialysis unit were collected 1 hour after the start of circulation, and the NO concentration was measured using a commercially available kit (“OxiSelect In Vitro Nitric Oxide (Nitrite/Nitrate) Assay Kit (Colorimetric)” made by Cell Biolabs, Inc.). The NO concentration was measured as the sum of the concentrations of NO2^− and NO3^− after the NO was completely hydrolyzed. For this reason, hereinafter, there is a case where the total concentration of […] is referred to as the NO concentration.

nitric oxide [NO gas]
NO concentration in the dialysate (200 ppm NO gas supplied): 0.5 µM
NO concentration in the dialysate (400 ppm NO gas supplied): 1 µM
NO concentration in the dialysate in the dialysate supply channel (800 ppm NO gas supplied to the dialysate, 1 hour after start of circulation, sum of NO2- and NO3-): 2 µM
